Values from PubChem BioAssay AID1259254 (NCATS, 2017).
Here is an unselected part of about 59,000 reagents tested. Over the whole deposit, about 1,550 (2.6%) got an active call. 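G2 share is only a proxy for re-replication; each gene was hit by three separate siRNAs, and active genes were retested.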 Raw values are not corrected between plates. Reagents against one gene are numbered here. No sequences are given here. The record does not give: the amount of reagent.

- Screen: 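Genome-wide screen for genes that prevent DNA re-replication in cancer cells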 (primary screen)
- System: human HCT116 colorectal cancer cells
- Knock-down reagent: single siRNA against human genes
- Timing: 3 days
- Detection: 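Nuclei stained with Hoechst and imaged; cell-cycle phase assigned by DNA content; G2 share scaled per plate, non-targeting siRNA 0%, GMNN siRNA 100%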
- Direction: G2 robust z-score and G2 cells, % of GMNN control: higher = more G2 cells, more excess DNA replication; raw share of cells in G2: higher = larger share of cells with G2 DNA content
- Hit rule: 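Active siRNAs have a G2 robust z of 5 or more median absolute deviations over the median, which in these data means about 38% or higher of GMNN control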

| Gene | reagent | G2 robust z-score | G2 cells, % of GMNN control | raw share of cells in G2 (%) | Call |
| --- | --- | --- | --- | --- | --- |
| CCN1 (cellular communication network factor 1) | 1 | 0.98 | 9.86 | 9.17 | inactive |
| CCN1 (cellular communication network factor 1) | 2 | -0.269 | 1.08 | 4.65 | inactive |
| CCN1 (cellular communication network factor 1) | 3 | 1.57 | 14 | 8.41 | inactive |
| MAGEA8 (MAGE family member A8) | 1 | 0.63 | 7.4 | 8.12 | inactive |
| MAGEA8 (MAGE family member A8) | 2 | -0.198 | 1.58 | 4.84 | inactive |
| MAGEA8 (MAGE family member A8) | 3 | -0.664 | -1.7 | 2.74 | inactive |
| C3orf70 (chromosome 3 open reading frame 70) | 1 | 10.1 | 74 | 25.8 | active |
| C3orf70 (chromosome 3 open reading frame 70) | 2 | -0.0412 | 2.68 | 4.62 | inactive |
| C3orf70 (chromosome 3 open reading frame 70) | 3 | 2.97 | 23.9 | 12.3 | inactive |
| KCNMA1 (potassium calcium-activated channel subfamily M alpha 1) | 1 | 0.489 | 6.41 | 7.62 | inactive |
| KCNMA1 (potassium calcium-activated channel subfamily M alpha 1) | 2 | 3.68 | 28.8 | 14.5 | inactive |
| KCNMA1 (potassium calcium-activated channel subfamily M alpha 1) | 3 | 0.82 | 8.74 | 7.79 | inactive |
| POLR2H (RNA polymerase II, I and III subunit H) | 1 | 6 | 45.2 | 20.5 | active |
| POLR2H (RNA polymerase II, I and III subunit H) | 2 | 3.24 | 25.8 | 14.5 | inactive |
| POLR2H (RNA polymerase II, I and III subunit H) | 3 | 6.15 | 46.2 | 19.5 | active |
| AGO1 (argonaute RISC component 1) | 1 | -0.456 | -0.243 | 3.91 | inactive |
| AGO1 (argonaute RISC component 1) | 2 | 0.0569 | 3.37 | 5.31 | inactive |
| AGO1 (argonaute RISC component 1) | 3 | 7.52 | 55.9 | 31.5 | active |
| HK3 (hexokinase 3) | 1 | -0.82 | -2.8 | 4.68 | inactive |
| HK3 (hexokinase 3) | 2 | 1.14 | 11 | 9.11 | inactive |
| HK3 (hexokinase 3) | 3 | -0.383 | 0.274 | 4.12 | inactive |
| NOTCH3 (notch receptor 3) | 1 | -0.102 | 2.25 | 6.23 | inactive |
| NOTCH3 (notch receptor 3) | 2 | 0.559 | 6.9 | 5.47 | inactive |
| NOTCH3 (notch receptor 3) | 3 | 4.91 | 37.5 | 20.3 | inactive |
| SYT7 (synaptotagmin 7) | 1 | 0.46 | 6.2 | 5.59 | inactive |
| SYT7 (synaptotagmin 7) | 2 | 1.56 | 14 | 12.2 | inactive |
| SYT7 (synaptotagmin 7) | 3 | 0.142 | 3.96 | 5 | inactive |
| GRHPR (glyoxylate and hydroxypyruvate reductase) | 1 | 4.7 | 36 | 18.8 | inactive |
| GRHPR (glyoxylate and hydroxypyruvate reductase) | 2 | 1.53 | 13.7 | 10.3 | inactive |
| GRHPR (glyoxylate and hydroxypyruvate reductase) | 3 | -0.159 | 1.85 | 3.83 | inactive |

The list goes on; the last 9 above are carried over.
| Gene | reagent | G2 robust z-score | G2 cells, % of GMNN control | raw share of cells in G2 (%) | Call |
| --- | --- | --- | --- | --- | --- |
| NOTCH3 (notch receptor 3) | 1 | -0.102 | 2.25 | 6.23 | inactive |
| NOTCH3 (notch receptor 3) | 2 | 0.559 | 6.9 | 5.47 | inactive |
| NOTCH3 (notch receptor 3) | 3 | 4.91 | 37.5 | 20.3 | inactive |
| SYT7 (synaptotagmin 7) | 1 | 0.46 | 6.2 | 5.59 | inactive |
| SYT7 (synaptotagmin 7) | 2 | 1.56 | 14 | 12.2 | inactive |
| SYT7 (synaptotagmin 7) | 3 | 0.142 | 3.96 | 5 | inactive |
| GRHPR (glyoxylate and hydroxypyruvate reductase) | 1 | 4.7 | 36 | 18.8 | inactive |
| GRHPR (glyoxylate and hydroxypyruvate reductase) | 2 | 1.53 | 13.7 | 10.3 | inactive |
| GRHPR (glyoxylate and hydroxypyruvate reductase) | 3 | -0.159 | 1.85 | 3.83 | inactive |
| CILP2 (cartilage intermediate layer protein 2) | 1 | 1.72 | 15 | 8.87 | inactive |
| CILP2 (cartilage intermediate layer protein 2) | 2 | -0.876 | -3.2 | 1.93 | inactive |
| CILP2 (cartilage intermediate layer protein 2) | 3 | 2.28 | 19 | 9.69 | inactive |
| MSX1 (msh homeobox 1) | 1 | -0.997 | -4.05 | 1.86 | inactive |
| MSX1 (msh homeobox 1) | 2 | -1.03 | -4.25 | 3.79 | inactive |
| MSX1 (msh homeobox 1) | 3 | -0.35 | 0.505 | 5.56 | inactive |
| COL4A6 (collagen type IV alpha 6 chain) | 1 | -0.368 | 0.376 | 3.61 | inactive |
| COL4A6 (collagen type IV alpha 6 chain) | 2 | -0.259 | 1.14 | 5.38 | inactive |
| COL4A6 (collagen type IV alpha 6 chain) | 3 | -0.217 | 1.44 | 3.63 | inactive |
| GULP1 (GULP PTB domain containing engulfment adaptor 1) | 1 | -0.497 | -0.527 | 3.6 | inactive |
| GULP1 (GULP PTB domain containing engulfment adaptor 1) | 2 | -1.36 | -6.58 | 2.97 | inactive |
| GULP1 (GULP PTB domain containing engulfment adaptor 1) | 3 | -0.488 | -0.465 | 4.07 | inactive |
| TMEM14A (transmembrane protein 14A) | 1 | 2.76 | 22.4 | 12.4 | inactive |
| TMEM14A (transmembrane protein 14A) | 2 | 1.1 | 10.7 | 8.59 | inactive |
| TMEM14A (transmembrane protein 14A) | 3 | 0.345 | 5.4 | 4.96 | inactive |
| CAMK1D (calcium/calmodulin dependent protein kinase ID) | 1 | 2.88 | 23.2 | 12.8 | inactive |
| CAMK1D (calcium/calmodulin dependent protein kinase ID) | 2 | -1.58 | -8.16 | 2.22 | inactive |
| CAMK1D (calcium/calmodulin dependent protein kinase ID) | 3 | -0.218 | 1.44 | 4.14 | inactive |
| CSF3 (colony stimulating factor 3) | 1 | -0.599 | -1.24 | 4.72 | inactive |
| CSF3 (colony stimulating factor 3) | 2 | 0.641 | 7.48 | 6.83 | inactive |
| CSF3 (colony stimulating factor 3) | 3 | -0.927 | -3.56 | 2.13 | inactive |
| UNC93B1 (unc-93B1 regulator of TLR signaling) | 1 | 0.415 | 5.88 | 6.07 | inactive |
| UNC93B1 (unc-93B1 regulator of TLR signaling) | 2 | 4.08 | 31.7 | 12.9 | inactive |
| UNC93B1 (unc-93B1 regulator of TLR signaling) | 3 | 0.0109 | 3.04 | 3.33 | inactive |
| PKN1 (protein kinase N1) | 1 | -1.17 | -5.29 | 3.86 | inactive |
| PKN1 (protein kinase N1) | 2 | -0.859 | -3.08 | 4.37 | inactive |
| PKN1 (protein kinase N1) | 3 | -0.152 | 1.9 | 4.69 | inactive |
| VMA22 (vacuolar ATPase assembly factor VMA22) | 1 | -0.0587 | 2.55 | 4.96 | inactive |
| VMA22 (vacuolar ATPase assembly factor VMA22) | 2 | 5.13 | 39 | 15 | active |
| VMA22 (vacuolar ATPase assembly factor VMA22) | 3 | -1.07 | -4.59 | 1.01 | inactive |
| N4BP3 (NEDD4 binding protein 3) | 1 | -0.561 | -0.982 | 4.6 | inactive |
| N4BP3 (NEDD4 binding protein 3) | 2 | -0.237 | 1.3 | 4.67 | inactive |
| N4BP3 (NEDD4 binding protein 3) | 3 | -0.182 | 1.69 | 3.81 | inactive |
| KIAA0408 | 1 | -1.2 | -5.48 | 2.85 | inactive |
| KIAA0408 | 2 | -0.225 | 1.38 | 4.52 | inactive |
| KIAA0408 | 3 | 1.98 | 16.9 | 9.57 | inactive |
| QKI (QKI, KH domain containing RNA binding) | 1 | -0.12 | 2.12 | 3.92 | inactive |
| QKI (QKI, KH domain containing RNA binding) | 2 | -0.303 | 0.836 | 5.52 | inactive |
| QKI (QKI, KH domain containing RNA binding) | 3 | 1.54 | 13.8 | 10.3 | inactive |
